Measured values taken from paper PMC11234460, “In Silico Discovery of Stapled Peptide Inhibitor Targeting the Nur77‐PPARγ Interaction and Its Anti‐Breast‐Cancer Efficacy” (Advanced Science, 2024).
No constants are given. Whether binding was seen depends on the method and setting. In cells and extracts the contact can be indirect. Some entries that bind do so weakly or less than the wild type.

Amino acid sequences for entries named in this document (tags omitted).
UniProt P22736: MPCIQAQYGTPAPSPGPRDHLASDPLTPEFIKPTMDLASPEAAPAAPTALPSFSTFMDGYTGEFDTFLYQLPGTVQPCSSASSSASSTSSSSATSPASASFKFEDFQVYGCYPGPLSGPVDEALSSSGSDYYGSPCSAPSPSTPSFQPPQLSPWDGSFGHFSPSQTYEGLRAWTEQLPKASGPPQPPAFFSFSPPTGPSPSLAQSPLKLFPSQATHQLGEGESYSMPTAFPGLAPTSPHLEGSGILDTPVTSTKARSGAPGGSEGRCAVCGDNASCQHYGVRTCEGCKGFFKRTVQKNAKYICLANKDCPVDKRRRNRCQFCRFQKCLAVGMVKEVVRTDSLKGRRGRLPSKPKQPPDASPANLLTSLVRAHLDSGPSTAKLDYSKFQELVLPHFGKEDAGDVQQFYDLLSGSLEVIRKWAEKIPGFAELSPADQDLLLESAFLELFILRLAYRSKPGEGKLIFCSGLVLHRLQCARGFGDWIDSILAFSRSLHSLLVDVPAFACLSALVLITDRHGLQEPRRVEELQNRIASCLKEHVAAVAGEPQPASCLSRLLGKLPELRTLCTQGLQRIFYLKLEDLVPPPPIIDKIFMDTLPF
UniProt P37231: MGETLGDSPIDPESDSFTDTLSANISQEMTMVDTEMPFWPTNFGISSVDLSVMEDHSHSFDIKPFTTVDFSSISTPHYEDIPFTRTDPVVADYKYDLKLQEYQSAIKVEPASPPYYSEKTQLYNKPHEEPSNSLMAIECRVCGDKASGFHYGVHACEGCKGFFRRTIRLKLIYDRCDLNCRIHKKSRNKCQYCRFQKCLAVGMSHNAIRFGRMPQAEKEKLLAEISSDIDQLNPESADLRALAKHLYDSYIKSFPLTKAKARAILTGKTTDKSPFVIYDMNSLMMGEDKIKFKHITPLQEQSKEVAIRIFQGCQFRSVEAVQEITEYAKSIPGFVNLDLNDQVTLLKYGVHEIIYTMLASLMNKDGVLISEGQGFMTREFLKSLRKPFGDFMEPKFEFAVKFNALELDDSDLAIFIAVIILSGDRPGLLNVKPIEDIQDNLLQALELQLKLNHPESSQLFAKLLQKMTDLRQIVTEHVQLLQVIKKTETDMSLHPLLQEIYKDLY

Key:
[1] = target: Nur77 (in HEK293T cells, co-immunoprecipitation) (UniProt P22736); experiment: co-IP; HEK293T cells transfected with Nur77 and PPARγ plasmids, treated with peptide (ST-CY14 1 × 10^-5 M) for 24 h; NP40 lysis; IP with Nur77 antibody, blot for PPARγ and Trim13
[2] = target: SmallBit-Nur77 (luciferase SmallBit fusion of Nur77) (UniProt P22736); experiment: split reporter; PPARγ-LargeBit and SmallBit-Nur77 transiently expressed in HEK293T cells; furimazine, luminescence at 37 °C

Substance	binding [1]	binding [2]
PPARγ (in HEK293T cells, co-immunoprecipitation) (from UniProt P37231 1-505)	binds	
PPARγ-LargeBit (luciferase LargeBit fusion of PPARγ) (from UniProt P37231 1-505)		binds
